From paper PMC11582362
Results are given in words; binding and its absence hold for the method and conditions named. Binding seen in cells or lysates may run through a third protein. Binding calls can cover weak binding; strength is not graded here. Where a sequence is shown, tags or fusion partners need not be part of it.

Target: T1, full length ADAR1 p110, wild type (FLAG-tagged and HA-tagged copies) (human) (UniProt P55265)
T1 sequence: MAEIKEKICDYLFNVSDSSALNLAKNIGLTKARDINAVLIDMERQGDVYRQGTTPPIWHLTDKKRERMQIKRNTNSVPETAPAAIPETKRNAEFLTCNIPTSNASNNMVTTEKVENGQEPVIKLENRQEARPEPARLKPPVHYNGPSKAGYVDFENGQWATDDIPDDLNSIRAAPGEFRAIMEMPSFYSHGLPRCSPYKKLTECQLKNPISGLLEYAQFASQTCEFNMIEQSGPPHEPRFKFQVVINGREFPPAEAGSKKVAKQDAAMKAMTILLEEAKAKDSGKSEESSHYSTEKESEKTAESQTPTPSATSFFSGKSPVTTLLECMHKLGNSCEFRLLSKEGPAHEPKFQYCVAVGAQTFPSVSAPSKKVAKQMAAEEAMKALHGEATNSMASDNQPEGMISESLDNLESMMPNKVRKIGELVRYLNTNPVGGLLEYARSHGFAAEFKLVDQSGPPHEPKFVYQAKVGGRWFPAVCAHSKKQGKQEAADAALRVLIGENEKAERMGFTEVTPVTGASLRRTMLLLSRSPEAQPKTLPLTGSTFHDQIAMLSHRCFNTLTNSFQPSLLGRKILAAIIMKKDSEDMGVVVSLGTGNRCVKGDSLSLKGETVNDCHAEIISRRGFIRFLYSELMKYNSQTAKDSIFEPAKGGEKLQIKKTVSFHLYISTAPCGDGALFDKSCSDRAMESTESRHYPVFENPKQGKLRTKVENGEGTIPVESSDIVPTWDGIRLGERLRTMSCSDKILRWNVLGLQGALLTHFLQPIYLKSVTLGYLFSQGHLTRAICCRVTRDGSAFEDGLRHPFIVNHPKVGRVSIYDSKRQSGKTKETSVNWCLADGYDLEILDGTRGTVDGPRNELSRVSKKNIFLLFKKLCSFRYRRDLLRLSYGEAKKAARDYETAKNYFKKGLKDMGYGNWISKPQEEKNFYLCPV
Assay: co-IP; FLAG- and HA-tagged ADAR1 variants co-expressed in HEK293T cells; lysate treated with RNase A; FLAG M2 magnetic beads, 2 h at 4 °C, IP buffer 25 mM Tris-HCl pH 7.4, 150 mM NaCl, 1 mM EDTA, 1% NP-40, 5% glycerol; western blot with anti-HA

binding: binds
Substance: HA-tagged ADAR1 without a deaminase domain (human) (domain or fragment)
